# Experimental data as given in PubChem BioAssay AID2685 (National Center for Advancing Translational Sciences (NCATS), 2010).
# Some of the results follow. Shown are side measurements of this screen, not its main read-out; they come without a call. The list favours compounds with an active or inconclusive main result. The note in brackets gives the kind of curve behind each potency; many fits are weak.
# Assay: qHTS Assay for Lipid Storage Modulators in Drosophila S3 Cells;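 as to cell number change: cells counted by Cell Tracker Red CMTPX staining in the red channel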
# Conditions: BODIPY lipid droplet fluorescence, 18-24 h; for cell number change: measured here: cell count max response, cells fed with added oleic acid
# Summary of the method: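 Drosophila S3 cells got compounds at several concentrations plus oleic acid (400 uM solution). Laser-scanning cytometry with 488 nm excitation read lipid droplets at 500-530 nm and cells at 575-640 nm. Percent activity was relative to 20 uM Triacsin C.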
# [1] = measured here: lipid fluorescence (Fed channel) AC50, cells fed with added oleic acid
# [2] = measured here: cell number channel AC50, cells fed with added oleic acid
SMILES,cell number change,AC50 [1],AC50 [2]
O=C(Nc1ccc2c(c1)nc1n2CCOC1)c1ccco1,15.7%,"9.2 µM [rising, partial curve]",
CC(=O)N1CCN(c2ccc(NC(=O)c3cccc(Cl)c3Cl)cc2)CC1,7.02%,,
O=C1NC(=S)N/C1=C/c1cc2c(cc1[N+](=O)[O-])OCO2,17.6%,,
C1=C(CCNCC2CC2)CCCC1,-13%,"0.58 µM [falling, single point]",
Cc1ccc(CNc2ccc3c(c2)OCO3)cc1,165%,"20.6 µM [rising, partial curve, poor fit]","18.4 µM [rising, partial curve]"
CCOC(=O)c1c(C)n(C)c2ccc(O)c(CN3CCC(C)CC3)c12,,,"6.51 µM [rising, single point]"
CC1CCCC(C)N1C(=O)CSc1nnc(-c2c[nH]c3ccccc23)o1 (centres undefined),-23.7%,"0.82 µM [rising, full curve, poor fit]",
Cc1cc(C)c(NC(=O)c2ccc3nccnc3c2)c(C)c1,-4.82%,,
COc1ccc(CNC(=O)C2CCCN(S(=O)(=O)c3cccc4nsnc34)C2)cc1 (centres undefined),23%,"5.8 µM [rising, partial curve]",
COc1ccc(OC)c(Nc2nc(-c3cccs3)cs2)c1,22%,"4.61 µM [rising, partial curve]",
CC(=O)NC(C)c1nc2ccccc2n1CC(=O)N1C(C)CCCC1C (centres undefined),,"0.231 µM [falling, full curve]","0.58 µM [falling, partial curve]"
CCN(CC)S(=O)(=O)c1ccc(C)c(NC(=O)COc2ccc(Cl)cc2Br)c1,-38.7%,"9.2 µM [falling, partial curve]","4.61 µM [falling, partial curve]"
CCOC(=O)C1CCCCN1C(=O)CCn1nnnc1CN1CCOCC1 (centres undefined),-4.28%,,
COc1cccc(/C=C/C(=O)OCC(=O)N2c3ccccc3CC2C)c1OC (centres undefined),92.3%,,"18.4 µM [rising, partial curve]"
CCCOc1ccc(CNC(=S)NCc2ccc(OC(C)C)cc2)cc1,1.99%,"0.184 µM [rising, full curve]",
O=c1[nH]c(=O)n(-c2ccc(F)cc2)c2c1C(C(F)(F)F)(C(F)(F)F)N=C(c1ccc(F)cc1)N2,20.9%,"23.1 µM [falling, partial curve, poor fit]",
O=C1CC(NS(=O)(=O)c2cccnc2)CN1c1cccc(F)c1 (centres undefined),49.9%,"32.6 µM [rising, partial curve]","11.6 µM [rising, partial curve]"
COc1cc(NC(=O)Nc2c(C)n(C)n(-c3ccccc3)c2=O)cc(OC)c1OC,-8.03%,"6.51 µM [rising, single point]",
O=S(=O)(NCC(c1ccco1)N1CCN(c2ccccc2F)CC1)c1ccc(F)cc1 (centres undefined),5.75%,,

# 3 entries from above, with bars between the fields.
SMILES | cell number change | AC50 [1] | AC50 [2]
O=C(Nc1ccc2c(c1)nc1n2CCOC1)c1ccco1 | 15.7% | 9.2 µM [rising, partial curve] | 
Cc1ccc(CNc2ccc3c(c2)OCO3)cc1 | 165% | 20.6 µM [rising, partial curve, poor fit] | 18.4 µM [rising, partial curve]
CCOC(=O)c1c(C)n(C)c2ccc(O)c(CN3CCC(C)CC3)c12 |  |  | 6.51 µM [rising, single point]

# Next part

SMILES,cell number change,AC50 [1],AC50 [2]
CCOc1nc(NC2CCCCC2)nc(NC(C)(C)C)n1,-41.3%,"18.4 µM [falling, single point]","23.1 µM [falling, single point]"
O=C(NCC(=O)N(c1ccccc1)C(C(=O)NCC1CCCO1)c1ccccc1)c1ccco1 (centres undefined),-12.4%,,
O=C(NC(=S)Nc1ccccc1N1CCOCC1)c1sc2ccccc2c1Cl,93.6%,"6.51 µM [falling, single point]","7.31 µM [falling, single point]"
O=C(CSc1ncn[nH]1)NC1CCCc2ccccc21 (centres undefined),,,"0.058 µM [rising, full curve, poor fit]"
C=CCn1c(NCc2ccc(OC)cc2O)nc2ccccc21,12.7%,"0.731 µM [rising, full curve, poor fit]",
COc1cc(CCC(=O)OCC(=O)N(CC(C)C)C2CCS(=O)(=O)C2)cc(OC)c1OC (centres undefined),50.8%,"32.6 µM [falling, single point]","29.1 µM [rising, single point]"
COC(=O)C1=C(C)Nc2ncnn2C1c1ccc(OC(=O)c2ccccc2)cc1 (centres undefined),-29%,"0.0259 µM [falling, full curve, poor fit]","1.3 µM [falling, full curve, poor fit]"
CCN(CC)CCCNC(=O)Cc1c(C(=O)O)n(C)c2ccccc12,1.9%,"2.91 µM [falling, single point]",
O=C(O)CC1S/C(=N/N=C/c2ccc(-c3ccccc3[N+](=O)[O-])o2)NC1=O (centres undefined),14.2%,"16.4 µM [rising, single point]",
Cc1ccc(-c2csc3ncnc(N4CCN(C(=O)c5ccco5)CC4)c23)cc1,2.81%,"2.06 µM [rising, partial curve, poor fit]",
Cc1cc(C(=O)CN2C(=O)NC3(CCCc4ccccc43)C2=O)c(C)n1Cc1ccco1 (centres undefined),-13.5%,"16.4 µM [rising, single point]",
CC1(C)CC(=O)C/C(=N\NC(=O)c2cccs2)C1,-6.58%,"0.651 µM [falling, full curve]",
CCOc1ccc(/C(O)=C2/C(=O)C(=O)N(CCOCCO)C2c2cccnc2)cc1 (centres undefined),-1.61%,"4.11 µM [falling, single point]",
Cc1ccc(C)c(N2CCN(c3ncnc4c3cnn4-c3ccccc3)CC2)c1,50.5%,,"20.6 µM [rising, single point]"
CCNC(=S)Nc1cccc(F)c1C,-0.352%,,
COc1cccc(CN(C(=O)CN2C(=O)c3ccccc3S2(=O)=O)C(C(=O)NCC2CCCO2)c2ccco2)c1 (centres undefined),14.1%,"0.0058 µM [rising, full curve, poor fit]",
CCC1CCCCN1C(=O)COc1ccc2c(c1)OCO2 (centres undefined),6.94%,"23.1 µM [falling, single point]",
COC(=O)c1[nH]c2cccc(OC)c2c1NC(=O)CCN1CCN(c2ccccc2F)CC1,27.4%,,
COC(=O)c1ccccc1NC(=O)c1noc2c1CCCC2,41.1%,"6.51 µM [rising, single point]","2.06 µM [rising, partial curve]"
